# Out of some 320,000 compounds screened, about 2,100 (0.66%) were called active. The shares of active, inactive and inconclusive entries below differ from those in the screen. Calls come from the whole dose curve; as a rule, active = well fitted inhibition curve with a large enough effect in the signal ratio, with a control signal flat (not every such curve was filed as active); inconclusive = small, poorly fitted or top-dose-only effect, or effect the other way, or a change in a side signal; inactive = flat fitted curve, though single readings scatter; the % refers to the signal ratio. Potencies beside an inconclusive call are fits to weak or partial responses and may not hold up.
# Test: qHTS Assay for Lipid Storage Modulators in Drosophila S3 Cells
# Conditions: BODIPY lipid droplet fluorescence, 18-24 h, cells fed with added oleic acid; lipid storage change, negative = inhibition: at 46.1 µM (top of the series) unless noted
# Outline: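 Drosophila S3 cells got compounds at several concentrations plus oleic acid (400 uM solution). Laser-scanning cytometry with 488 nm excitation read lipid droplets at 500-530 nm and cells at 575-640 nm. Percent activity was relative to 20 uM Triacsin C.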
# % is set by controls: 0 for no effect and ±100 for the full control effect; potency is the fitted concentration of half-maximal effect.
SMILES,Potency,"lipid storage change, negative = inhibition"
O=C(/C=C/c1ccccc1[N+](=O)[O-])N1CCOCC1,"inconclusive: 6.51 µM [activator, single point]",
O=C(NNS(=O)(=O)c1ccc(F)cc1)c1cc(Cl)ccc1O,"inconclusive: 29.1 µM [activator, single point]",
CN(C)CCCN=Cc1c(O)n(Cc2ccc3c(c2)OCO3)c(=O)c2ccccc12,,inconclusive: 39.5%
CN(C)CC(O)COC(c1ccc(Cl)cc1)c1ccc(Cl)cc1 (centres undefined),,inconclusive: 1.82%
CC(C)CCn1c(NCCN(C)C)nc2c1c(=O)[nH]c(=O)n2C,"inconclusive: 0.517 µM [falling, partial curve]",
Cc1ccc(C)c(CN2CCCN(Cc3cc(C)ccc3C)S2(=O)=O)c1,,inconclusive: 19.3%
O=C(N/N=C/c1ccco1)c1ccc(C(=O)N/N=C/c2ccco2)o1,,inconclusive: -49.7%
O=C(CSc1nnc(Cc2ccccc2)n1-c1ccccc1)NNC(=O)Cc1ccccc1,"inconclusive: 16.4 µM [cytotoxic, partial curve]",
CCN(CC)CCN(C(=O)/C=C/c1cccs1)c1nc2ccc(C)cc2s1,"inconclusive: 29.1 µM [falling, single point]",
CCCCCCc1ccc(OC(=O)c2ccncc2)cc1,,inconclusive: 53.3%
O=C(Nc1nccs1)c1nc[nH]c1C(=O)NCc1ccccc1,,inconclusive: 13.7%
CN(C)CCCN(C(=O)C1COc2ccccc2O1)c1nc2cc3c(cc2s1)OCO3 (centres undefined),,inconclusive: 32.9%
CC1(C)OC(C)(C)/C(=C/Nc2ccc(O)cc2)C1=O,,inconclusive: -47.2%
COc1ccc(N2C(=O)CSC2c2ccccc2F)c(OC)c1 (centres undefined),,inconclusive: 14.2%
Cc1cc(C)c(NC(=O)c2c[nH]c(=S)n2-c2ccc(F)cc2)c(C)c1,,inconclusive: -22.3%
CCOC(=O)c1c(CN2CCCCC2)n(C)c2ccc(OC)c(S(=O)(=O)c3ccccc3)c12,,inconclusive: -100%
Cc1ccc(C(=O)Nc2nnc(-c3ccco3)o2)cc1C,"inconclusive: 23.1 µM [falling, partial curve]",
O=c1cc(NC2CCCCC2)c2ccccc2o1,"inconclusive: 23.1 µM [activator, partial curve]",
CC(=O)n1nc(-c2ccccc2)nc1NCc1ccc(F)cc1,,inconclusive: 141%
Cc1cc([N+](=O)[O-])ccc1NC(=S)NC(=O)Cc1ccccc1,,inconclusive: 49.2%
COc1cc2c(cc1NC(=O)CN(C)Cc1nc3ccccc3c(=O)[nH]1)oc1ccccc12,,inconclusive: 97.7%
CCOc1ccc(NC(=O)C2CCCN2S(=O)(=O)c2ccc(OCC)cc2)cc1 (centres undefined),active: 0.651 µM,
O=C(Nc1ccc(N2CCN(C(=O)c3cccs3)CC2)cc1)c1ccccc1Cl,,inconclusive: -100%
CCCCOC(=O)Nc1nc(C)c(C(=O)OCC)s1,,inconclusive: 18.9% [at 9.22 µM]
CC(C)CCNC(=O)C1CCCN(S(=O)(=O)c2ccc3c(c2)CC(C)N3C(=O)C2CC2)C1 (centres undefined),"inconclusive: 29.1 µM [activator, single point]",
CCOC(=O)c1ccc(NC(=O)Nc2ncccc2C)cc1,,inconclusive: 1.73%
Cc1cc(C)cc(OCC(=O)N(Cc2ccco2)c2c(N)n(Cc3ccccc3)c(=O)[nH]c2=O)c1,,inconclusive: -27%

# In another format: results already given
SMILES	Potency	lipid storage change, negative = inhibition
O=C(NNS(=O)(=O)c1ccc(F)cc1)c1cc(Cl)ccc1O	inconclusive: 29.1 µM [activator, single point]	
CC(C)CCNC(=O)C1CCCN(S(=O)(=O)c2ccc3c(c2)CC(C)N3C(=O)C2CC2)C1 (centres undefined)	inconclusive: 29.1 µM [activator, single point]	

# Additional results follow.

SMILES,Potency,"lipid storage change, negative = inhibition"
CCOc1ccccc1OCC(=O)Oc1ccc(C)c(C)c1,,inactive
CC(NC(=O)c1cc(-c2cccnc2)nc2ccc(Br)cc12)C1CCCO1 (centres undefined),,inconclusive: -46.7%
Cc1ccc(C)c(NC(=O)C2CC3c4ccccc4C2c2ccccc23)c1 (centres undefined),"inconclusive: 18.4 µM [falling, partial curve]",
O=C(Nc1nncs1)c1cccc(S(=O)(=O)N2CCOCC2)c1,active: 23.1 µM,
Cc1onc(-c2ccccc2)c1C(=O)Nc1nc(-c2ccccc2)cs1,,inconclusive: 109%
Cc1ccc(CSc2ccc(-c3ccco3)nn2)cc1,,inconclusive: 6.91%
CCN1C(=O)CC(n2c(C)nc3ccccc32)C1=O (centres undefined),,inconclusive: 25%
O=S1(=O)Nc2c(ccc3cccnc23)-c2ccccc21,,inconclusive: -9.39%
COC(=O)c1ccc(OC(=O)c2ccc(OC)cc2)c(OC)c1,,inconclusive: 7.3%
Cc1n[nH]c(=O)nc1NCC1CCCO1 (centres undefined),,inconclusive: -10.3%
C=CCn1c(=S)[nH]c2scc(-c3ccc(C)o3)c2c1=O,,inconclusive: 4.9%
O=C(O)c1ccccc1C(=O)NCCc1c(C(=O)O)[nH]c2ccc(Cl)cc12,,inconclusive: -9.81%
CCC(=O)Nc1nc(OC)cc(OC)n1,"inconclusive: 0.366 µM [falling, full curve, poor fit]",
COc1ccc(CC(=O)Oc2ccc(F)cc2)cc1,,inconclusive: 25.2%
COc1ccc(CCNCC(=O)Nc2ccc(OC(F)F)cc2)cc1,"inconclusive: 29.1 µM [activator, single point]",
COc1ccccc1NC(=S)N1CCN(c2ccccn2)CC1,,inconclusive: 19.7%
O=C(O)C1CCC(Cn2c(SCc3cc(=O)n4cc(Br)ccc4n3)nc3ccsc3c2=O)CC1 (centres undefined),,inconclusive: -3.59% [at 9.22 µM]
CC(C(=O)NCCN1C(=O)S/C(=C\c2cccs2)C1=O)N1C(=O)c2ccccc2C1=O (centres undefined),,inconclusive: 14.2%
COc1ccc(-c2nn(-c3ccccc3C)cc2CNCc2cccnc2)cc1F,"inconclusive: 29.1 µM [activator, single point]",
O=[N+]([O-])c1cccc(NNS(=O)(=O)c2ccccc2F)c1,,inconclusive: -8.75%
O=C(C1CCCO1)N1CCN(S(=O)(=O)c2cccc3nsnc23)CC1 (centres undefined),,inconclusive: -37.3%
C[C@@H]1C=CC(=O)O[C@@H]1c1ccc(Cl)cc1,,inconclusive: 36%
c1ccc(Cn2nnc3c(Nc4ccc5c(c4)OCO5)nc(C4CC4)nc32)cc1,"inconclusive: 1.3 µM [activator, full curve]",
O=C(CSc1nccc(=O)[nH]1)N1c2ccccc2CCc2ccccc21,,inconclusive: -0.207%
Cc1ccccc1Nc1nnc(SCC(=O)c2c(N)n(C3CC3)c(=O)[nH]c2=O)s1,,inconclusive
COc1ccccc1NC(=S)N(CCCN(C)C)Cc1cc2cc3c(cc2[nH]c1=O)OCO3,,inconclusive: 8.65%
COc1cc(CNn2nnnc2N)cc(Br)c1OCC(=O)NC(C)(C)C,"inconclusive: 6.51 µM [activator, single point]",

# Individual results from the list:
# `COc1ccc(-c2nn(-c3ccccc3C)cc2CNCc2cccnc2)cc1F` – Potency: inconclusive: 29.1 µM [activator, single point]
# `O=C(Nc1nccs1)c1nc[nH]c1C(=O)NCc1ccccc1` – lipid storage change, negative = inhibition: inconclusive: 13.7%

# Further compounds:

SMILES,Potency,"lipid storage change, negative = inhibition"
COc1ccccc1-c1nc(SCC(=O)NCc2ccco2)c2c(=O)n(C)c(=O)n(C)c2n1,"inconclusive: 1.64 µM [falling, partial curve]",
O=C(CSc1ncn[nH]1)c1ccc2c(c1)OCO2,"inconclusive: 6.51 µM [rising, single point]",
O=C1OCC2=C1C(c1ccc(F)cc1)CC(=O)N2c1ccccc1 (centres undefined),,inconclusive: -4.82%
CC1=CC(C)C2C(=O)N(O)C(=O)C2C1 (centres undefined),active: 20.6 µM,
COc1ccc(C2c3[nH]c4ccccc4c3CCN2Cc2cccn2-c2ncccn2)cc1C (centres undefined),active: 16.4 µM,
O=C(Nc1ccc(O)c(-c2nc3ccccc3s2)c1)C1=COCCO1,"inconclusive: 6.51 µM [rising, partial curve]",
CCn1c(Cc2cccn2C)nnc1SCC(=O)c1ccc(C)cc1,,inconclusive: 12.8%
Cc1ccc(S(=O)(=O)N2CCN(C(=O)COC(=O)c3ccc(Cl)nc3)CC2)c(C)c1,,inconclusive: 3.58%
CC(C)c1ccc(NC(=O)C(c2ccccc2)N2CC(=O)Nc3ccccc32)cc1 (centres undefined),,inconclusive: -6.99%
Cn1c(CCC(=O)OCC(=O)NCc2ccc3c(c2)OCO3)nc(=O)c2ccccc21,,inconclusive: 5.31%
COc1cccc(-c2c[nH]c(=O)[nH]c2=O)c1,"inconclusive: 29.1 µM [activator, single point]",
CC(C)N(C(C)C)S(=O)(=O)c1ccc(NC(=O)c2cnccn2)cc1,"inconclusive: 14.6 µM [falling, partial curve]",
Cn1c(=O)c2c(ncn2CC(=O)OCC(=O)Nc2sccc2C(N)=O)n(C)c1=O,,inconclusive: -9.45%
CCCCC[n+]1ccn(C2=C([O-])c3ccccc3C(=O)/C2=N\S(=O)(=O)c2ccc(Br)cc2)c1,,inactive
O=C(CCN1CCN(c2ccccc2)CC1)N/N=C/c1ccccc1O,,inconclusive: 31.6%
COc1cc(Nc2c3ccccc3nc3ccccc23)cc(OC)c1OC,,inconclusive: -92.5%
CCOC(=O)c1cnc(SCC(=O)Nc2ccc(NC(=O)CC)c(OC)c2)nc1N,,inconclusive: 21.7%
CC(C)(C)c1nnc2sc(SCC(=O)c3cccs3)nn2c1=O,,inconclusive: -2.28%
Cn1c(SCc2ccccc2Cl)nc2c1c(=O)[nH]c(=O)n2C,,inactive
COc1ccc(NC(=O)CCN2C(=O)c3ccccc3C2=O)c(OC)c1,,inconclusive: 54%
CCCCn1c(N)c(N(CCC(C)C)C(=O)CSc2nnc(Nc3ccccc3)s2)c(=O)[nH]c1=O,,inconclusive: 34.4%
Cc1nn(Cc2ccc(Cl)cc2)c(C)c1NC(=O)c1noc2c1CCc1ccccc1-2,"inconclusive: 1.3 µM [rising, full curve]",
COc1cccc(CN(C)CC(O)COC(c2ccccc2)c2ccccc2C)c1 (centres undefined),,inconclusive: -18.4%
CC(=O)Nc1ccccc1-c1nc2ccc(C(=O)N3CCN(c4cccc(C)c4)C(C)C3)cc2[nH]c1=O (centres undefined),,inconclusive: -3.39%
COc1ccccc1OCCn1cc(/C=C(\C#N)C(=O)NCc2ccco2)c2ccccc21,,inconclusive: -32.1%
